Laboratory results: PubChem BioAssay AID493246 (Drosophila RNAi Screening Center, 2011)
In all, the deposit lists about 21,000 reagents; this is an unselected part of those that have a named target and a result. Of all reagents, 429 (2%) are marked active. 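Values are raw and not normalised between plates; calls rest on per-plate z-scores that were not deposited.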 Reagent sequences are not shown. Not stated in the record: the amount of reagent, the time to read-out.

- Screen: 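Genome-wide search for dsRNAs that reduce cell number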 (primary screen)
- System: Drosophila Kc and S2R+ cells
- Reagent: long dsRNA against Drosophila genes
- Measured: 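Raw, unnormalised count of remaining cells in each well; per-plate z-scores of cell number underlie the calls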
- Direction: Kc cell number and S2R+ cell number: higher = more cells remaining
- Active means: 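Active when the per-plate z-score of cell number is 3 or more in the direction of fewer cells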

For Cpsf5 (Cleavage and polyadenylation specific factor 5) [DRSC10374] the deposit lists Kc cell number, rep 1 = 1.30e6; Kc cell number, rep 2 = 1.49e6; S2R+ cell number, rep 1 = 1.24e6; S2R+ cell number, rep 2 = 1.06e6; inactive. Against Atf-2 (Activating transcription factor-2) [DRSC04130] the deposit lists Kc cell number, rep 1 = 1.29e6; Kc cell number, rep 2 = 1.44e6; S2R+ cell number, rep 1 = 1.02e6; S2R+ cell number, rep 2 = 1.23e6; inactive. After knock-down of velo (veloren) [DRSC08841] the results were Kc cell number, rep 1 = 8.74e5; Kc cell number, rep 2 = 9.52e5; S2R+ cell number, rep 1 = 7.01e5; S2R+ cell number, rep 2 = 8.52e5; active. After knock-down of velo (veloren) [DRSC09698] the results were Kc cell number, rep 1 = 9.12e5; Kc cell number, rep 2 = 1.06e6; S2R+ cell number, rep 1 = 1.01e6; S2R+ cell number, rep 2 = 9.35e5; inactive. With knock-down of CG8441 [DRSC07180], the record shows Kc cell number, rep 1 = 1.42e6; Kc cell number, rep 2 = 1.54e6; S2R+ cell number, rep 1 = 1.25e6; S2R+ cell number, rep 2 = 1.14e6; inactive. With knock-down of CG11436 [DRSC17783], the record shows Kc cell number, rep 1 = 5.71e5; S2R+ cell number, rep 1 = 8.04e5; inactive.

Knock-down of MESR4 (Misexpression suppressor of ras 4) [DRSC06901] gave: Kc cell number, rep 1 = 1.57e6; Kc cell number, rep 2 = 1.61e6; S2R+ cell number, rep 1 = 9.34e5; S2R+ cell number, rep 2 = 1.04e6; inactive. Silencing of Psa (Puromycin sensitive aminopeptidase) [DRSC08152] gave: Kc cell number, rep 1 = 1.41e6; Kc cell number, rep 2 = 1.50e6; S2R+ cell number, rep 1 = 1.09e6; S2R+ cell number, rep 2 = 1.01e6; inactive. Silencing of CG15676 [DRSC04267] came out at: Kc cell number, rep 1 = 1.43e6; Kc cell number, rep 2 = 1.47e6; S2R+ cell number, rep 1 = 1.31e6; S2R+ cell number, rep 2 = 3.60e5; inactive. With knock-down of CG8119 [DRSC20083], the record shows Kc cell number, rep 1 = 1.61e6; Kc cell number, rep 2 = 1.59e6; S2R+ cell number, rep 1 = 1.05e6; S2R+ cell number, rep 2 = 1.21e6; inactive. After knock-down of CG12523 [DRSC09895], the record shows Kc cell number, rep 1 = 1.52e6; Kc cell number, rep 2 = 1.48e6; S2R+ cell number, rep 1 = 1.02e6; S2R+ cell number, rep 2 = 1.14e6; inactive. After knock-down of Socs36E (Suppressor of cytokine signaling at 36E) [DRSC02455], the record shows Kc cell number, rep 1 = 1.43e6; Kc cell number, rep 2 = 1.50e6; S2R+ cell number, rep 1 = 9.45e5; S2R+ cell number, rep 2 = 1.09e6; inactive.

With knock-down of lambdaTry [DRSC06137], the screen gave Kc cell number, rep 1 = 1.56e6; Kc cell number, rep 2 = 1.53e6; S2R+ cell number, rep 1 = 1.18e6; S2R+ cell number, rep 2 = 1.27e6; inactive. Against sunz (sungrazer) [DRSC12559], the entry reads Kc cell number, rep 1 = 1.40e6; Kc cell number, rep 2 = 1.56e6; S2R+ cell number, rep 1 = 1.21e6; S2R+ cell number, rep 2 = 1.25e6; inactive. CG7900 [DRSC16336] gave Kc cell number, rep 1 = 1.33e6; Kc cell number, rep 2 = 1.37e6; S2R+ cell number, rep 1 = 9.82e5; S2R+ cell number, rep 2 = 1.12e6; inactive. Against CG7920 [DRSC16346], the entry reads Kc cell number, rep 1 = 5.65e5; S2R+ cell number, rep 1 = 8.18e5; inactive. After knock-down of CG8738 [DRSC07256], the record shows Kc cell number, rep 1 = 1.69e6; Kc cell number, rep 2 = 1.70e6; S2R+ cell number, rep 1 = 1.31e6; S2R+ cell number, rep 2 = 1.43e6; inactive. With knock-down of topi (matotopetli) [DRSC16431] the results were Kc cell number, rep 1 = 1.65e6; Kc cell number, rep 2 = 1.64e6; S2R+ cell number, rep 1 = 1.25e6; S2R+ cell number, rep 2 = 1.36e6; inactive.

For CG13137 [DRSC02234] the deposit lists Kc cell number, rep 1 = 1.48e6; Kc cell number, rep 2 = 1.53e6; S2R+ cell number, rep 1 = 1.20e6; S2R+ cell number, rep 2 = 1.36e6; inactive. Against rudhira [DRSC19821], the entry reads Kc cell number, rep 1 = 2.60e5; S2R+ cell number, rep 1 = 4.58e5; active. For Rh50 [DRSC08692], the entry reads Kc cell number, rep 1 = 1.46e6; Kc cell number, rep 2 = 1.43e6; S2R+ cell number, rep 1 = 1.32e6; S2R+ cell number, rep 2 = 1.29e6; inactive.

Individual results from the list.
Psa (Puromycin sensitive aminopeptidase) [DRSC08152], S2R+ cell number, rep 1 → 1.09e6
Socs36E (Suppressor of cytokine signaling at 36E) [DRSC02455], Kc cell number, rep 1 = 1.43e6
Rh50 [DRSC08692], Call = inactive
